Assay results: patent EP0412158A1, “ONCOSTATIC DRUG” (priority 1987, dated 1988)
At least one structure is not confirmed: it was looked up by name or label, or the drawing left a doubt.

Experiments:
Format in all cases: in vivo, female BALB/C mice
methyl cholanthrene A [1] = experiment: Methyl cholanthrene A tumor, evaluation by extension of period of survival (Examples 7 to 11); settings: No. 2; 100 mg/kg, ip×9; individual mice
Protocol: The aforementioned compounds, A to D, were severally dissolved in distilled water to obtain aqueous solutions containing the compounds in a fixed concentration of 10 mg/ml. To the female BALB/C mice (five weeks old) to which methyl cholanthrene A had been transplanted in a ratio of 1.0 x 10^5 cells per mouse, […] to determine the mices' periods of survival. For comparison, mice to which no antineoplastic drug was administered and mice to which aminonitroso urea was administered were similarly tested.

[2] = test system: methyl cholanthrene A tumor; experiment: Methyl cholanthrene A tumor, evaluation by weight of tumor (Examples 13 to 16); settings: 100 mg/kg; for Range of tumor size: ip×9, individual mice; for Change in body weight: ip×9 D1-D9, body weight 13 days after tumor transplantation
Protocol: Compound E, an alkali metal salt of polymolybdic acid (Example 13), and other compounds (Compounds F to H) mentioned above were severally dissolved in distilled water to obtain aqueous solutions containing the compounds in a fixed concentration of 10 mg/ml. These aqueous solutions were administered to female BALB/C mice (five weeks old) to which methyl cholanthrene A tumor had been transplanted to test the compounds for antineoplastic activity. To be morespecific, the methyl cholanthrene A was transplanted to the mice in a ratio of 1.0 x 10^5 cells per mouse and the aqueous solution was continuously administered (at a dose of 100 mg/kg of body weight) for nine days by intraperitoneal injection. On elapse of 14 days after the stop of the administration, the tumors in the mice were weighed. For comparison, mice to which the aqeuous solution was not administered and the mice to which aminonitrosourea was administered were similarly tested.

methyl cholanthrene A [3] = experiment: Methyl cholanthrene A tumor, evaluation by elongation of period of survival (Examples 17 to 20); settings: for Change in body weight: 100 mg/kg ×9, D1~D9, weight 13 days after tumor transplantation; for Range of number of days of survival: 100 mg/kg ×9, individual mice
Protocol: The aforementioned active compounds, E to H, were severally dissolved in distilled water to obtain aqueous solutions containing the compounds in a fixed concentration of 10 mg/ml. To female BALB/C mice (five weeks old) to which methyl cholanthrene A had been transplanted in a ratio of 1.0 x 10^5 cells per mouse, the aqueous solutions were continuously administered at a dose of 100 mg/kg of body weight for nine days by intraperitoneal injection to determine the mices periods of survival. For comparison, mice to which no aqueous solution was administered and mice to which aminonitrosourea was administered were similarly tested.

Row | Structure (SMILES) | Range of number of days of survival (methyl cholanthrene A [1]) | Range of tumor size [2] | Change in body weight [2] | Change in body weight (methyl cholanthrene A [3]) | Range of number of days of survival (methyl cholanthrene A [3])
1 | O.O.[NH4+].[NH4+].[NH4+].[NH4+].[NH4+].[NH4+].[O]=[Mo](=[O])([O-])[O][Mo](=[O])(=[O])[O][Mo](=[O])([O-])([O-])[O][Mo](=[O])(=[O])[O][Mo](=[O])([O-])([O-])[O][Mo](=[O])(=[O])[O][Mo](=[O])(=[O])[O-] [Compound D, [NH4]6 [Mo7O24]. 2H20] | 21, 25, 33, 33, 33, 35, 43, 43 days |  |  |  | 
2 | O.O.O.O.[K+].[K+].[K+].[K+].[K+].[K+].[O]=[Mo](=[O])([O-])[O][Mo](=[O])(=[O])[O][Mo](=[O])([O-])([O-])[O][Mo](=[O])(=[O])[O][Mo](=[O])([O-])([O-])[O][Mo](=[O])(=[O])[O][Mo](=[O])(=[O])[O-] [Compound E, K6 [Mo7O24] • 4H2O] |  | 1568, 350, 1997, 1259, 968, 912, 1587, 1611 mg | (+)0.20 g | (+) 0.20 g | 26, 28, 33, 35, 36, 42, 42, 42 days
3 | O.O.O.O.[Na+].[Na+].[Na+].[Na+].[Na+].[Na+].[O]=[Mo](=[O])([O-])[O][Mo](=[O])(=[O])[O][Mo](=[O])([O-])([O-])[O][Mo](=[O])(=[O])[O][Mo](=[O])([O-])([O-])[O][Mo](=[O])(=[O])[O][Mo](=[O])(=[O])[O-] [Compound F, Na6 [Mo7O24] • 4H2O] |  | 1389, 1541, 1569, 1781, 2031, 1853, 1233, 1345 mg | (+)1.02 g | (+) 1.20 g | 25, 28, 33, 35, 37, 39, 41, 42 days
4 | O.O.O.O.[Cs+].[Cs+].[Cs+].[Cs+].[Cs+].[Cs+].[O]=[Mo](=[O])([O-])[O][Mo](=[O])(=[O])[O][Mo](=[O])([O-])([O-])[O][Mo](=[O])(=[O])[O][Mo](=[O])([O-])([O-])[O][Mo](=[O])(=[O])[O][Mo](=[O])(=[O])[O-] [Compound H, Cs6 [Mo7O24] • 4H2O] |  | 1820, 1931, 1785, 2031, 1644, 1381, 1056, 1148 mg | (+)2.05 g | (+) 2.05 g | 25, 28, 29, 30, 33, 38, 39, 41 days
5 | O.O.O.O.[Li+].[Li+].[Li+].[Li+].[Li+].[Li+].[O]=[Mo](=[O])([O-])[O][Mo](=[O])(=[O])[O][Mo](=[O])([O-])([O-])[O][Mo](=[O])(=[O])[O][Mo](=[O])([O-])([O-])[O][Mo](=[O])(=[O])[O][Mo](=[O])(=[O])[O-] [Compound G, Li6 [Mo7O24] • 4H2O] |  | 1518, 1731, 1865, 1392, 1481, 1960, 2008, 2125 mg | (+)0.88 g | (+) 0.88 g | 24, 26, 27, 30, 34, 35, 27, 40 days
